The source of these data is PMC12431657, “Discovery and mechanistic insights of dibenzoylmethane as a broad spectrum inhibitor of coronavirus” (PLOS Pathogens, 2025).

The subject of the assay is HCoV-OC43. Further details: species or system RD; HTS, protection from HCoV-OC43 induced cell death, luminescent cell viability (CellCounting-Lite 2.0), inhibition rate. As to conditions: 24 h post infection, 1 h compound pre-incubation, 10 µM, inhibitor.

Structures can show the parent of a compound that is named as a salt. Where two headings read alike, the source gives them in different places. In all, about 3,300 compounds went through this assay and about 60 (2%) showed an effect of 50% or more. Some of the results follow.

As for `OC[C@@H](O)[C@@H](O)[C@@H](O)CO` [Ribitol], the “OC43 Inhibition rate” value is on record as 1%.

In the case of `Oc1cc(O)c2c(c1)O[C@H](c1cc(O)c(O)c(O)c1)[C@@H](O)C2` [(+)-Gallocatechin], the “OC43 Inhibition rate” value was 0.2%. The same measure, in the same setting: the result for `OCc1ccccc1O` [Salicyl alcohol] reads 0%; that for `C/C1=C\CC[C@]23O[C@H]2[C@@H](OC3=O)c2c(C)coc2C1` [Linderane], 1%. Same read-out and setting: the result for `Cc1cn([C@H]2C[C@H](O)[C@@H](CO)O2)c(=O)nc1N` [5-Methyl-2'-deoxycytidine] reads -0.4%. On the same count and under the same terms, the result for `C1CSCSC1` [1,3-Dithiane] reads -0.2%; that for `CCCCCCCCCC(=O)O` [Decanoic acid], -4.9%. `C[C@]1(C(=O)O)CC[C@]2(C)CC[C@]3(C)C(=CC(=O)[C@@H]4[C@@]5(C)CC[C@H](O[C@@H]6O[C@H](C(=O)O)[C@@H](O)[C@H](O)[C@H]6O[C@@H]6O[C@H](C(=O)O)[C@@H](O)[C@H](O)[C@H]6O)[C@](C)(CO)[C@@H]5CC[C@]43C)[C@@H]2C1` [Licoricesaponin G2]: the “OC43 Inhibition rate” value is recorded as -2.8%. Same read-out and setting: next, `C/C1=C\CC(C)(C)/C=C/C(=O)/C(C)=C/CC1` [Zerumbone]: 0.3%. Same read-out and setting: next, `COC(=O)[C@@]12OC[C@]34[C@H]([C@@H](O)[C@@H]1O)[C@@]1(C)CC(=O)C(O)=C(C)[C@@H]1C[C@H]3OC(=O)[C@H](OC(=O)/C=C(\C)C(C)C)[C@@H]24` [Bruceantin]: 5%; `C=C[C@]1(C)CC[C@@H](C(=C)C)C[C@H]1C(=C)C` [β-Elemene]: -0.3%; `CC(C)CC(=O)C(=O)O` [4-Methyl-2-oxopentanoic acid]: 0%. Still for that read-out and setting: the result for `C[C@@H]1O[C@@H](OC[C@H]2O[C@@H](Oc3cc(O)c4c(=O)cc(-c5ccc(O)cc5)oc4c3)[C@H](O[C@@H]3O[C@@H](C)[C@H](O)[C@@H](O)[C@H]3O)[C@@H](O)[C@@H]2O)[C@H](O)[C@H](O)[C@H]1O` [Ligustroflavone] reads 5.5%; that for `CC1=C2C[C@H]3[C@@H](CC=C4C[C@@H](O)CC[C@@]43C)[C@@H]2CC[C@]12O[C@@H]1C[C@H](C)CN[C@H]1[C@H]2C` [Cyclopamine], 0%. Consider `COc1cc(CO)ccc1O` [Vanillyl alcohol], for which the “OC43 Inhibition rate” value worked out at 4.7%. Same read-out and setting: next, `COc1c2c(cc3oc(C)cc(=O)c13)OC(C(C)(C)O[C@@H]1O[C@H](CO)[C@@H](O)[C@H](O)[C@H]1O)C2` (stereo partly drawn) [5-O-Methylvisammioside]: 0.3%; `COc1cccc(O)c1C(=O)O` [2-Hydroxy-6-methoxybenzoic acid]: 0%. On to `C/C=C1\C(=O)C[C@H]2[C@@H]3CCC4=CC(=O)CC[C@]4(C)[C@H]3CC[C@]12C` [Guggulsterone], for which the “OC43 Inhibition rate” value (OC43 Inhibition rate, 24 h) is recorded as -0.4%. Regarding `Cc1ncc(CO)c(CO)c1O` [Pyridoxine], the “OC43 Inhibition rate” value (OC43 Inhibition rate, 24 h) is recorded as -0.5%.

In the case of `CC(=O)C(=O)O` [Pyruvic acid], the “OC43 Inhibition rate” value was -0.6%.

With `CC(=O)O[C@@H]1C(=O)C2=C(C(=O)C[C@H]3C(C)(C)C(=O)CC[C@]23C)[C@]2(C)C(=O)C[C@H]([C@H](C)CC(=O)CC(C)C(=O)O)[C@@]12C` (stereo partly drawn) [Ganoderic acid F], the “OC43 Inhibition rate” value is reported as -0.7%. Same read-out and setting: next, `CO[C@H]1C[C@H](O[C@H]2CC[C@@]3(C)C(=CC[C@]4(O)[C@@H]3C[C@@H](OC(=O)c3ccc(O)cc3)[C@@]3(C)[C@]4(O)CC[C@@]3(O)C(C)=O)C2)O[C@H](C)[C@H]1O[C@H]1C[C@H](OC)[C@H](O[C@H]2C[C@@H](OC)[C@H](O)[C@@H](C)O2)[C@@H](C)O1` [Qingyangshengenin A]: 1.5%; `CC(=O)NCCc1cnc[nH]1` [N-Acetylhistamine]: -0.2%; `CN(CC(=O)O)C(=N)NP(=O)(O)O` [Phosphocreatine (disodium)]: -1.7%. For `O=C(O)CCCCCCCCCCCCCCC(=O)O` [Hexadecanedioic acid], the “OC43 Inhibition rate” value is given as 4.8%. Still for that read-out and setting: the result for `C=C1CC[C@H]2C(=C)CC[C@H]3C(=C)C(=O)O[C@@H]3[C@@H]12` [Dehydrocostus Lactone] reads 38.6%. On the same count and under the same terms, the result for `C[C@H](CCC(=O)O)[C@H]1CC[C@H]2[C@@H]3C(=O)C[C@@H]4C[C@H](O)CC[C@]4(C)[C@H]3C[C@H](O)[C@]12C` [7-keto-Deoxycholic acid] reads 13.3%; that for `CC(C)c1ccc(C=O)cc1` [Cuminaldehyde], -1.7%.

As to `C/C=C/SC[C@H](NC(=O)CC[C@H](N)C(=O)O)C(=O)O` [γ-Glutamyl-S-1-propenyl cysteine], the “OC43 Inhibition rate” value amounted to 2.8%. On the same count and under the same terms, next, `Cc1c[nH]c(=O)[nH]c1=O` [Thymine]: -0.6%.

In the case of `C=C1CC[C@@H]2[C@](C)(COC(=O)CCC(=O)O)[C@H](OC(=O)CCC(=O)O)CC[C@@]2(C)[C@@H]1/C=C/C1=CCOC1=O` [Kalii Dehydrographolidi Succinas], the “OC43 Inhibition rate” value is -0.2%. Still for that read-out and setting: next, `C/C=C(/C)C(=O)O[C@H]1[C@@H](OC(C)=O)c2c(ccc3ccc(=O)oc23)OC1(C)C` [Praeruptorin A]: 0.8%; `CC(=O)Nc1ccn([C@@H]2O[C@H](CO)[C@@H](O)[C@H]2O)c(=O)n1` [N4-Acetylcytidine]: -5.6%. Still for that read-out and setting: next, `C/C=C/C/C=C/CCC(=O)[C@H]1O[C@H]1C(N)=O` [Cerulenin]: 1.1%. `C=C1C[C@@]23CC[C@H]4[C@@](C)(CCC[C@@]4(C)C(=O)O)[C@@H]2CC[C@]1(O[C@@H]1O[C@H](CO)[C@@H](O)[C@H](O)[C@H]1O[C@@H]1O[C@H](CO)[C@@H](O)[C@H](O)[C@H]1O)C3` [Steviolbioside]: the “OC43 Inhibition rate” value is on record as -0.6%. Still for that read-out and setting: the result for `CC1(C)CC[C@]2(C(=O)O[C@@H]3O[C@H](CO)[C@@H](O)[C@H](O)[C@H]3O)CC[C@]3(C)C(=CC[C@@H]4[C@@]5(C)CC[C@H](O[C@@H]6O[C@H](C(=O)O)[C@@H](O[C@@H]7O[C@@H](CO)[C@H](O)[C@H]7O)[C@H](O)[C@H]6O)C(C)(C)[C@@H]5CC[C@]43C)[C@@H]2C1` [Araloside A] reads 1.5%; that for `COc1cccc2c1cc([N+](=O)[O-])c1c(C(=O)O)cc3c(c12)OCO3` [Aristolochic acid A], 2.7%. On the same count and under the same terms, the result for `Oc1cc(O)c2c(c1)O[C@H](c1ccc(O)c(O)c1)[C@H](O)[C@H]2c1c(O)cc(O)c2c1O[C@H](c1ccc(O)c(O)c1)[C@H](O)[C@H]2c1c(O)cc(O)c2c1O[C@H](c1ccc(O)c(O)c1)[C@H](O)C2` [Procyanidin C1] reads -0.5%. As for `C[C@H]1O[C@@H](Oc2ccc(COC(=O)CC(O)(CC(=O)OCc3ccc(O[C@@H]4O[C@H](CO)[C@@H](O)[C@H](O)[C@H]4O)cc3)C(=O)Oc3ccc(O[C@H]4O[C@H](CO)[C@@H](O)[C@H](O)[C@H]4O)cc3)cc2)[C@H](O)[C@@H](O)[C@@H]1O` (stereo partly drawn) [Parishin], the “OC43 Inhibition rate” value is reported as -0.2%. Still for that read-out and setting: next, `O=c1c(-c2ccc(O[C@@H]3O[C@H](CO)[C@@H](O)[C@H](O)[C@H]3O)cc2)coc2cc(O)cc(O)c12` [Sophoricoside]: 0.7%. On the same count and under the same terms, the result for `CCCCCCCCCCCCCCCC=O` [Hexadecanal] reads -0.6%. `NCCCC[C@H](N)C(=O)O` [L-Lysine hydrochloride]: the “OC43 Inhibition rate” value (OC43 Inhibition rate, 24 h) is -7.3%. For the molecule `C[C@@H]1O[C@@H](O[C@H]2[C@H](Oc3cc(O)c4c(c3)O[C@H](c3ccc(O)c(O)c3)CC4=O)O[C@H](CO)[C@@H](O)[C@@H]2O)[C@H](O)[C@H](O)[C@H]1O` [Neoeriocitrin], the “OC43 Inhibition rate” value is reported as -2.2%. For the molecule `O=C(O)C(O)c1ccc(O)c(O)c1` (stereo not drawn) [3,4-Dihydroxymandelic acid], the “OC43 Inhibition rate” value is listed as -0.2%. Turning to `O=C(O)c1ncccc1O` [3-Hydroxypicolinic acid], the “OC43 Inhibition rate” value stood at 0.1%.

In the case of `COc1ccc(O)c(N)c1` [2-Amino-4-methoxyphenol], the “OC43 Inhibition rate” value came to 3.4%. On the same count and under the same terms, next, `CC[C@H]1CN2CC[C@H]1C[C@H]2[C@H](O)c1ccnc2ccc(OC)cc12` [Hydroquinine]: 0%; `CC(=O)CCc1ccc(O[C@@H]2O[C@H](CO)[C@@H](O)[C@H](O)[C@H]2O)cc1` [Raspberry ketone glucoside]: 0.7%. As for `O=c1cc(-c2ccc(O)c(O)c2)oc2c([C@@H]3O[C@H](CO)[C@@H](O)[C@H](O)[C@H]3O)c(O)cc(O)c12` [Orientin], the “OC43 Inhibition rate” value was determined as 1.6%. Still for that read-out and setting: the result for `CCCCC/C=C\C/C=C\C/C=C\C/C=C\CCCC(=O)O` [Arachidonic acid] reads 1.2%; that for `OC[C@H]1O[C@@](CO)(OC[C@@]2(OC[C@@]3(OC[C@@]4(OC[C@@]5(OC[C@@]6(OC[C@@]7(O[C@H]8O[C@H](CO)[C@@H](O)[C@H](O)[C@H]8O)O[C@H](CO)[C@@H](O)[C@@H]7O)O[C@H](CO)[C@@H](O)[C@@H]6O)O[C@H](CO)[C@@H](O)[C@@H]5O)O[C@H](CO)[C@@H](O)[C@@H]4O)O[C@H](CO)[C@@H](O)[C@@H]3O)O[C@H](CO)[C@@H](O)[C@@H]2O)[C@@H](O)[C@@H]1O` [Fructo-oligosaccharide DP8/GF7], 5.1%. The same measure, in the same setting: next, `CC[C@@H](CO)NCCN[C@@H](CC)CO` [Ethambutol (dihydrochloride)]: -0.1%.

For `C[C@]1(Cn2ccnn2)[C@H](C(=O)O)N2C(=O)C[C@H]2S1(=O)=O` [Tazobactam], the “OC43 Inhibition rate” value was -0.1%. Still for that read-out and setting: next, `C=CC1CNC(=S)O1` (racemic) [DL-Goitrin]: -1%; `O=c1cc(-c2ccccc2)oc2c1ccc1ccccc12` [Alpha-Naphthoflavone]: 65.1%.

For `COc1ccc(/C=C/c2cc(O)cc(O)c2)cc1` [4'-Methoxyresveratrol], the “OC43 Inhibition rate” value is reported as 1.4%.

For the molecule `O=P(O)(O)OC(CO)CO` [β-Glycerophosphate (disodium salt hydrate)], the “OC43 Inhibition rate” value is listed as -0.3%.
